In patent US20100221748A1 (WASHINGTON UNIVERSITY, published 2010):

Biological target: T1, Rb (mouse, UniProt P13405 2-921, phosphorylation state varies by sample; Ser804 (Ser811 in human) hypophosphorylated in β1-/- NPCs)
T1 construct: Endogenous protein from wildtype or β1-/- mouse NPC lysates; also called retinoblastoma protein; pan Rb
T1 sequence (looked up): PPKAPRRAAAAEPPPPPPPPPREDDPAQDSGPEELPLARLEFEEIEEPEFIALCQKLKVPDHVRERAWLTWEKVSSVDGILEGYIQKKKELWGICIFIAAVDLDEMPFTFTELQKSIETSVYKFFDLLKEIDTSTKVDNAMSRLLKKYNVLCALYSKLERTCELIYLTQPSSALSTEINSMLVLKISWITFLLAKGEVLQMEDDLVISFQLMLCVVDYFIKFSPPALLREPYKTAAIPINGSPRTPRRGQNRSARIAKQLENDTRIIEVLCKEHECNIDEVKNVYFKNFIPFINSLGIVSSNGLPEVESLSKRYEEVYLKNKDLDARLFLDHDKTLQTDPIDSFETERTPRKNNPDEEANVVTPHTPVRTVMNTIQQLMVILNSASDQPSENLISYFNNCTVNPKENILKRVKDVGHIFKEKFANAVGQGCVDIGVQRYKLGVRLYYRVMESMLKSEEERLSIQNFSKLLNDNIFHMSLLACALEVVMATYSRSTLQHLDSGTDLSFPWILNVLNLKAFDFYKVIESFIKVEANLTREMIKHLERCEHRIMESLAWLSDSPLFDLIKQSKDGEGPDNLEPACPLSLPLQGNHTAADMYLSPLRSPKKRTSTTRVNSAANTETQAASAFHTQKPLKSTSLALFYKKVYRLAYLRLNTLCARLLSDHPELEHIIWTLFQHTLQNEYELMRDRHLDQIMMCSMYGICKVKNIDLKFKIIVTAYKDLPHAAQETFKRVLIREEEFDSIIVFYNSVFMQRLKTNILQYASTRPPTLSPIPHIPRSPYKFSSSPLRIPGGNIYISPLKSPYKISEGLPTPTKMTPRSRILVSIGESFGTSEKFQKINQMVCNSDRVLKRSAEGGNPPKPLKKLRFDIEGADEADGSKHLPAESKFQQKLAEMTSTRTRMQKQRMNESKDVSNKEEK
Assay: immunoprecipitation of NPC lysates with pan Rb antibody, Western blot with E2F1 antibody, densitometry
Description: The primary antibodies were incubated with 100 μg of protein lysate at 40 C for 16 hr, the immune complexes were collected by incubation with 10 μl of Protein G beads for 1 hr at 40 C and centrifugation. The immunoprecipitated proteins were analyzed by standard immunoblot analysis. […] Detection was performed using anti-rabbit or anti-mouse HRP-linked secondary antibodies (Cell Signaling Technology, Beverly, Mass.) followed by Chemiluminescence (Millipore, Billerica, Mass.). When applicable, subcellular fractionation was performed using a commercially available kit (BioVision Inc. Mountain View, Calif.) following manufacturers instructions.
In proliferating cells, growth factor signaling promotes CDK-dependent phosphorylation of Rb to inhibit it from sequestering the G1 transcription factor E2F1 (Galderisi, U., et al., Oncogene. 22, 5208-19, 2003). To examine whether E2F1 is sequestered by hypophosphorylated Rb in β1−/− NPCs, we immunoprecipitated Rb from NPCs. In these experiments, NPC lysates were immunoprecipitated with pan Rb antibody, followed by Western blot with an E2F1 antibody and densitometry. […] AU, arbitrary units.

fold more E2F1 bound to Rb in β1-/- vs. wildtype NPCs: 7.6 fold
B1: E2F1 (other, mouse, UniProt Q61501 1-430, looked up)
chain: MAVAPAGGQHAPALEALLGAGALRLLDSSQIVIISTAPDVGAPQLPAAPPTGPRDSDVLLFATPQAPRPAPSAPRPALGRPPVKRRLDLETDHQYLAGSSGPFRGRGRHPGKGVKSPGEKSRYETSLNLTTKRFLELLSRSADGVVDLNWAAEVLKVQKRRIYDITNVLEGIQLIAKKSKNHIQWLGSHTMVGIGKRLEGLTQDLQQLQESEQQLDHLMHICTTQLQLLSEDSDTQRLAYVTCQDLRSIADPAEQMVIVIKAPPETQLQAVDSSETFQISLKSKQGPIDVFLCPEESADGISPGKTSCQETSSGEDRTADSGPAGPPPSPPSTSPALDPSQSLLGLEQEAVLPRMGHLRVPMEEDQLSPLVAADSLLEHVKEDFSGLLPGEFISLSPPHEALDYHFGLEEGEGIRDLFDCDFGDLTPLDF
notes: Endogenous protein co-immunoprecipitated with Rb; also called G1 transcription factor E2F1
